Measurements reported in patent publication US20260274955A1, “ANTIBODIES FOR TARGETING CD28 AND USES THEREOF” (Janux Therapeutics, Inc., priority 2023, published 2026).
No constants are given. Whether binding was seen depends on the method and setting. Some entries that bind do so weakly or less than the wild type.

Target: Ab-1
Experiment: BLI titration

Binder	binding
RDWCPRDLWVHCFA [Peptide-3]	binds
QDWCPRDLWVHCFA [Peptide-6]	binds

The next lines start with the values.

binding	Binder
binds	IDWCPRYLWDECYN [Peptide-23]
binds	EDWCPRDLWVHCFA [Peptide-7]
binds	KDWCPRDLWVHCFA [Peptide-12]
binds	TDWCPRDLWVHCFA [Peptide-16]
